{"source": "patent US7326731B2", "about": "“Muscarinic agonists” (Eli Lilly and Company, priority 2002, dated 2008)", "test_system": "Male Sprague-Dawley rats", "settings": "s.c. immediately after the sampling phase; three-hour delay; dose-related"}
{"smiles": "CN1[C@@H]2C[C@@H](OC(=O)[C@H](CO)c3ccccc3)C[C@H]1[C@@H]1O[C@@H]12", "note": "[Scopolamine, scopolamine]", "values": [{"measurement": "retention in the eight arm radial maze", "result": "disrupted retention"}]}
